Measurements reported in PubChem BioAssay AID652243 (Drosophila RNAi Screening Center, 2013)

Purpose: 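Fly regulators of androgen-dependent reporter output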 (primary screen)
Cells: Drosophila S2R+ cells
Reagent: long dsRNA against Drosophila genes
Duration: 72 h (48 h, then 24 h hormone)
Treatment: synthetic androgen R1881 at 10 nM for 24 h
Measured: 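Per-well raw luminescence of the androgen-driven firefly reporter and of the Renilla control, two replicates each, without normalisation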
Reading the numbers: firefly reporter light: higher = more light from androgen-responsive reporter; Renilla control light: higher = more constitutive control signal (cell number, transfection)
Rule for the call: 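Hit when the log firefly-to-Renilla ratio dropped or increased by a fixed fold versus the mean of GFP or LacZ controls across duplicate plates; lowering cut given as 1.5 and as 3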
Meaning of the calls: active = hit: reporter lowered or raised; inactive = no hit
In all, the deposit lists about 24,000 reagents; below is a random part of those with a known target gene and a result. Of all reagents, 246 (1%) were called active. 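Plates not normalised; calls are printed but the firefly/Renilla ratio behind them is not deposited; fold cut for lowering reported inconsistently.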 Raw values are not corrected between plates. Names joined by + are all predicted targets of the reagent. Not given: the amount of reagent.

| gene knocked down | amplicon | firefly reporter light, replicate 1 | firefly reporter light, replicate 2 | Renilla control light, replicate 1 | Renilla control light, replicate 2 | Outcome |
| --- | --- | --- | --- | --- | --- | --- |
| Cyp318a1 | DRSC19784 | 4.37e5 | 3.90e5 | 3.24e6 | 3.11e6 | inactive |
| CG34033 | DRSC38882 | 1.34e6 | 1.10e6 | 2.05e6 | 1.50e6 | inactive |
| Nup160 + RfC38 | DRSC01997 | 9.78e5 | 8.79e5 | 1.95e6 | 2.09e6 | inactive |
| Grip128 | DRSC20167 | 1.30e5 | 1.59e5 | 6.85e5 | 7.67e5 | inactive |
| qvr | DRSC05280 | 1.78e5 | 1.40e5 | 5.37e5 | 6.66e5 | inactive |
| Gr66a | DRSC10783 | 1.47e5 | 1.27e5 | 2.29e6 | 1.57e6 | inactive |
| CG9400 | DRSC20182 | 94897 | 1.34e5 | 7.64e5 | 8.59e5 | inactive |
| Eglp3 | DRSC04293 | 2.11e5 | 1.84e5 | 1.06e6 | 1.01e6 | inactive |
| Eglp3 | DRSC25630 | 1.14e6 | 9.88e5 | 8.23e5 | 6.33e5 | inactive |
| COX7B | DRSC10895 | 2.35e5 | 2.63e5 | 2.20e6 | 1.85e6 | inactive |
| Acsx3 | DRSC14309 | 85709 | 1.22e5 | 5.32e5 | 6.19e5 | inactive |
| CG15408 | DRSC00423 | 1.31e5 | 1.38e5 | 8.35e5 | 9.82e5 | inactive |
| Rpn13R | DRSC18404 | 3.80e5 | 4.24e5 | 3.01e6 | 2.62e6 | inactive |
| Rpn13R | DRSC23628 | 1.43e6 | 1.24e6 | 1.07e6 | 1.13e6 | inactive |
| CG3788 | DRSC04418 | 3.28e5 | 2.89e5 | 2.08e6 | 1.62e6 | inactive |
| CG3788 | DRSC24502 | 8.38e5 | 9.14e5 | 1.16e6 | 1.09e6 | inactive |
| CG17325 + CG42305 | DRSC02602 | 1.74e5 | 1.86e5 | 1.92e6 | 2.24e6 | inactive |
| Alp9 | DRSC10486 | 1.03e6 | 8.20e5 | 1.42e6 | 1.13e6 | inactive |
| Alp9 | DRSC36890 | – | – | – | – | inactive |
| wbl | DRSC07718 | 82571 | 67016 | 1.01e6 | 1.22e6 | inactive |
| wbl | DRSC26561 | 3.25e5 | 2.75e5 | 2.86e5 | 2.75e5 | inactive |
| Ir94a | DRSC13538 | 1.03e5 | 1.02e5 | 1.85e5 | 2.14e5 | inactive |
| Ir94a | DRSC28031 | 5.61e5 | 5.12e5 | 1.32e6 | 1.33e6 | inactive |
| CG8180 | DRSC07092 | 1.16e6 | 1.46e6 | 1.89e6 | 2.20e6 | inactive |
| CG8180 | DRSC07093 | 31230 | 14606 | 8.17e5 | 8.17e5 | inactive |
| CG5653 | DRSC10534 | 1.70e5 | 1.49e5 | 1.99e6 | 1.44e6 | inactive |
| CG5653 | DRSC29858 | 5.77e5 | 4.32e5 | 1.08e6 | 1.56e6 | inactive |
| muc | DRSC02832 | 3.08e5 | 1.79e5 | 2.66e6 | 2.01e6 | inactive |
| muc | DRSC21940 | 9.93e5 | 8.73e5 | 2.83e6 | 1.27e6 | inactive |
| muc | DRSC23834 | 6.64e5 | 8.69e5 | 8.57e5 | 9.46e5 | inactive |

Only “firefly reporter light, replicate 2”, for 7 of the entries above:
Cyp318a1 [DRSC19784]: 3.90e5
CG34033 [DRSC38882]: 1.10e6
Nup160 + RfC38 [DRSC01997]: 8.79e5
Grip128 [DRSC20167]: 1.59e5
qvr [DRSC05280]: 1.40e5
Gr66a [DRSC10783]: 1.27e5
CG9400 [DRSC20182]: 1.34e5

Additional records:
| gene knocked down | amplicon | firefly reporter light, replicate 1 | firefly reporter light, replicate 2 | Renilla control light, replicate 1 | Renilla control light, replicate 2 | Outcome |
| --- | --- | --- | --- | --- | --- | --- |
| CG2063 | DRSC06811 | 2.53e5 | 1.80e5 | 1.99e6 | 1.09e6 | inactive |
| CG15711 | DRSC06582 | 96546 | 1.30e5 | 1.03e6 | 1.03e6 | inactive |
| GstO1 | DRSC10688 | 1.04e5 | 1.26e5 | 1.37e6 | 1.36e6 | inactive |
| GstO1 | DRSC26064 | 3.12e5 | 2.80e5 | 6.12e5 | 6.87e5 | inactive |
| CG8249 | DRSC07125 | 46376 | 56354 | 1.28e6 | 1.28e6 | inactive |
| CG33110 | DRSC16137 | 2.53e5 | 3.35e5 | 3.34e6 | 2.04e6 | inactive |
| CG33110 | DRSC27221 | 2.53e5 | 3.20e5 | 6.70e5 | 7.09e5 | inactive |
| mTor | DRSC02811 | 6.03e5 | 7.74e5 | 7.92e5 | 1.30e6 | inactive |
| mTor | DRSC36734 | – | – | – | – | inactive |
| mTor | DRSC36735 | – | – | – | – | inactive |
| cold | DRSC00538 | 8.98e5 | 5.38e5 | 2.97e6 | 2.40e6 | inactive |
| lncRNA:CR9284 | DRSC03899 | 1.79e5 | 1.45e5 | 2.98e5 | 3.06e5 | inactive |
| lncRNA:CR9284 | DRSC04536 | 8.81e5 | 6.35e5 | 1.67e6 | 1.76e6 | inactive |
| chk | DRSC04994 | 8.43e5 | 9.07e5 | 1.17e6 | 1.34e6 | inactive |
| Fas2 | DRSC17308 | 7.07e5 | 6.46e5 | 1.81e6 | 1.40e6 | inactive |
| Fas2 | DRSC17309 | 7.95e5 | 8.46e5 | 1.92e6 | 1.69e6 | inactive |
| Fas2 | DRSC18664 | 1.20e5 | 1.05e5 | 1.02e6 | 7.37e5 | inactive |
| endos | DRSC10658 | 8.42e5 | 6.84e5 | 1.63e6 | 1.97e6 | inactive |
| endos | DRSC29476 | 3.07e5 | 3.57e5 | 1.01e6 | 1.01e6 | inactive |
| Mgat3 | DRSC01305 | 1.72e5 | 2.58e5 | 3.33e5 | 4.07e5 | inactive |
| Mgat3 | DRSC29398 | 4.60e5 | 5.17e5 | 1.15e6 | 1.15e6 | inactive |
| CG3679 | DRSC19346 | 1.24e5 | 1.17e5 | 7.88e5 | 8.58e5 | inactive |
| CG3679 | DRSC25833 | 2.53e5 | 3.87e5 | 9.23e5 | 8.28e5 | inactive |
| myo | DRSC17174 | 73322 | 1.13e5 | 8.35e5 | 8.03e5 | inactive |
| CG4829 | DRSC19920 | 1.71e5 | 1.46e5 | 9.86e5 | 6.47e5 | inactive |
| CG15650 | DRSC04241 | 2.18e5 | 2.17e5 | 1.87e6 | 1.54e6 | inactive |
| CoRest | DRSC19881 | 1.65e5 | 1.51e5 | 6.81e5 | 9.20e5 | inactive |
| CoRest | DRSC21626 | 1.31e6 | 9.60e5 | 2.26e6 | 1.56e6 | inactive |
| CoRest | DRSC22305 | 9.03e5 | 7.99e5 | 2.24e6 | 1.94e6 | inactive |
| CoRest | DRSC25141 | 1.22e6 | 1.20e6 | 1.02e6 | 6.60e5 | inactive |
